No constants are given. Whether binding was seen depends on the method and setting. Binding seen in cells or lysates may run through a third protein. Some results given as binding are weak or reduced against the parent protein; the word gives no strength.
T1: Insig-2 (pull-down assay) (human) (UniProt Q9Y5U4)
T1 sequence: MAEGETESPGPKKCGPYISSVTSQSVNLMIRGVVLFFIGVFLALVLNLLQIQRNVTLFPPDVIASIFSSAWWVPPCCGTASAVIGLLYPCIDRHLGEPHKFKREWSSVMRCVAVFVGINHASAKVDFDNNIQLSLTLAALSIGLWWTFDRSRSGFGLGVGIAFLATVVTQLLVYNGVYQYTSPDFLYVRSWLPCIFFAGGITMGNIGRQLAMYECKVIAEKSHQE

T2: Insig-2(F115A) (pull-down assay) (human) (UniProt Q9Y5U4)
T2 sequence: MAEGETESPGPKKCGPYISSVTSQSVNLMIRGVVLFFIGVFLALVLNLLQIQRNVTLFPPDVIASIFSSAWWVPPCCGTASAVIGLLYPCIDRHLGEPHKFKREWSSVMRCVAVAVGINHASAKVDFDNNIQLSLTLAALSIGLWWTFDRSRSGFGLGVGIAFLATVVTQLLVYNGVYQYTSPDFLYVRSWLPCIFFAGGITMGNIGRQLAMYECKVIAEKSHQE


Columns and labels:
[1] = biological target: T1, Insig-2 (pull-down assay) (human); assay: pull-down
[2] = biological target: T2, Insig-2(F115A) (pull-down assay) (human); assay: pull-down

Binder	binding [1]	binding [2]
Scap(D428A) (pull-down assay) (protein, UniProt Q12770 1-1279) MTLTERLREKISRAFYNHGLLCASYPIPIILFTGFCILACCYPLLKLPLPGTGPVEFTTPVKDYSPPPVDSDRKQGEPTEQPEWYVGAPVAYVQQIFVKSSVFPWHKNLLAVDVFRSPLSRAFQLVEEIRNHVLRDSSGIRSLEELCLQVTDLLPGLRKLRNLLPEHGCLLLSPGNFWQNDWERFHADPDIIGTIHQHEPKTLQTSATLKDLLFGVPGKYSGVSLYTRKRMVSYTITLVFQHYHAKFLGSLRARLMLLHPSPNCSLRAESLVHVHFKEEIGVAELIPLVTTYIILFAYIYFSTRKIDMVKSKWGLALAAVVTVLSSLLMSVGLCTLFGLTPTLNGGEIFPYLVVVIGLENVLVLTKSVVSTPVDLEVKLRIAQGLSSESWSIMKNMATELGIILIGYFTLVPAIQEFCLFAVVGLVSAFFLQMLFFTTVLSIDIRRMELADLNKRLPPEACLPSAKPVGQPTRYERQLAVRPSTPHTITLQPSSFRNLRLPKRLRVVYFLARTRLAQRLIMAGTVVWIGILVYTDPAGLRNYLAAQVTEQSPLGEGALAPMPVPSGMLPPSHPDPAFSIFPPDAPKLPENQTSPGESPERGGPAEVVHDSPVPEVTWGPEDEELWRKLSFRHWPTLFSYYNITLAKRYISLLPVIPVTLRLNPREALEGRHPQDGRSAWPPPGPIPAGHWEAGPKGPGGVQAHGDVTLYKVAALGLATGIVLVLLLLCLYRVLCPRNYGQLGGGPGRRRRGELPCDDYGYAPPETEIVPLVLRGHLMDIECLASDGMLLVSCCLAGHVCVWDAQTGDCLTRIPRPGRQRRDSGVGSGLEAQESWERLSDGGKAGPEEPGDSPPLRHRPRGPPPPSLFGDQPDLTCLIDTNFSAQPRSSQPTQPEPRHRAVCGRSRDSPGYDFSCLVQRVYQEEGLAAVCTPALRPPSPGPVLSQAPEDEGGSPEKGSPSLAWAPSAEGSIWSLELQGNLIVVGRSSGRLEVWDAIEGVLCCSSEEVSSGITALVFLDKRIVAARLNGSLDFFSLETHTALSPLQFRGTPGRGSSPASPVYSSSDTVACHLTHTVPCAHQKPITALKAAAGRLVTGSQDHTLRVFRLEDSCCLFTLQGHSGAITTVYIDQTMVLASGGQDGAICLWDVLTGSRVSHVFAHRGDVTSLTCTTSCVISSGLDDLISIWDRSTGIKFYSIQQDLGCGASLGVISDNLLVTGGQGCVSFWDLNYGDLLQTVYLGKNSEAQPARQILVLDNAAIVCNFGSELSLVYVPSVLEKLD	binds	no binding
Scap variant containing double mutations I294A and F301A (pull-down assay) (protein, UniProt Q12770 1-1279) MTLTERLREKISRAFYNHGLLCASYPIPIILFTGFCILACCYPLLKLPLPGTGPVEFTTPVKDYSPPPVDSDRKQGEPTEQPEWYVGAPVAYVQQIFVKSSVFPWHKNLLAVDVFRSPLSRAFQLVEEIRNHVLRDSSGIRSLEELCLQVTDLLPGLRKLRNLLPEHGCLLLSPGNFWQNDWERFHADPDIIGTIHQHEPKTLQTSATLKDLLFGVPGKYSGVSLYTRKRMVSYTITLVFQHYHAKFLGSLRARLMLLHPSPNCSLRAESLVHVHFKEEIGVAELIPLVTTYIALFAYIYASTRKIDMVKSKWGLALAAVVTVLSSLLMSVGLCTLFGLTPTLNGGEIFPYLVVVIGLENVLVLTKSVVSTPVDLEVKLRIAQGLSSESWSIMKNMATELGIILIGYFTLVPAIQEFCLFAVVGLVSDFFLQMLFFTTVLSIDIRRMELADLNKRLPPEACLPSAKPVGQPTRYERQLAVRPSTPHTITLQPSSFRNLRLPKRLRVVYFLARTRLAQRLIMAGTVVWIGILVYTDPAGLRNYLAAQVTEQSPLGEGALAPMPVPSGMLPPSHPDPAFSIFPPDAPKLPENQTSPGESPERGGPAEVVHDSPVPEVTWGPEDEELWRKLSFRHWPTLFSYYNITLAKRYISLLPVIPVTLRLNPREALEGRHPQDGRSAWPPPGPIPAGHWEAGPKGPGGVQAHGDVTLYKVAALGLATGIVLVLLLLCLYRVLCPRNYGQLGGGPGRRRRGELPCDDYGYAPPETEIVPLVLRGHLMDIECLASDGMLLVSCCLAGHVCVWDAQTGDCLTRIPRPGRQRRDSGVGSGLEAQESWERLSDGGKAGPEEPGDSPPLRHRPRGPPPPSLFGDQPDLTCLIDTNFSAQPRSSQPTQPEPRHRAVCGRSRDSPGYDFSCLVQRVYQEEGLAAVCTPALRPPSPGPVLSQAPEDEGGSPEKGSPSLAWAPSAEGSIWSLELQGNLIVVGRSSGRLEVWDAIEGVLCCSSEEVSSGITALVFLDKRIVAARLNGSLDFFSLETHTALSPLQFRGTPGRGSSPASPVYSSSDTVACHLTHTVPCAHQKPITALKAAAGRLVTGSQDHTLRVFRLEDSCCLFTLQGHSGAITTVYIDQTMVLASGGQDGAICLWDVLTGSRVSHVFAHRGDVTSLTCTTSCVISSGLDDLISIWDRSTGIKFYSIQQDLGCGASLGVISDNLLVTGGQGCVSFWDLNYGDLLQTVYLGKNSEAQPARQILVLDNAAIVCNFGSELSLVYVPSVLEKLD	no binding	–

Second part, the binder after the results:

binding [1]	binding [2]	Binder
no binding	–	Scap(Y351A) (pull-down assay) (protein, UniProt Q12770 1-1279) MTLTERLREKISRAFYNHGLLCASYPIPIILFTGFCILACCYPLLKLPLPGTGPVEFTTPVKDYSPPPVDSDRKQGEPTEQPEWYVGAPVAYVQQIFVKSSVFPWHKNLLAVDVFRSPLSRAFQLVEEIRNHVLRDSSGIRSLEELCLQVTDLLPGLRKLRNLLPEHGCLLLSPGNFWQNDWERFHADPDIIGTIHQHEPKTLQTSATLKDLLFGVPGKYSGVSLYTRKRMVSYTITLVFQHYHAKFLGSLRARLMLLHPSPNCSLRAESLVHVHFKEEIGVAELIPLVTTYIILFAYIYFSTRKIDMVKSKWGLALAAVVTVLSSLLMSVGLCTLFGLTPTLNGGEIFPALVVVIGLENVLVLTKSVVSTPVDLEVKLRIAQGLSSESWSIMKNMATELGIILIGYFTLVPAIQEFCLFAVVGLVSDFFLQMLFFTTVLSIDIRRMELADLNKRLPPEACLPSAKPVGQPTRYERQLAVRPSTPHTITLQPSSFRNLRLPKRLRVVYFLARTRLAQRLIMAGTVVWIGILVYTDPAGLRNYLAAQVTEQSPLGEGALAPMPVPSGMLPPSHPDPAFSIFPPDAPKLPENQTSPGESPERGGPAEVVHDSPVPEVTWGPEDEELWRKLSFRHWPTLFSYYNITLAKRYISLLPVIPVTLRLNPREALEGRHPQDGRSAWPPPGPIPAGHWEAGPKGPGGVQAHGDVTLYKVAALGLATGIVLVLLLLCLYRVLCPRNYGQLGGGPGRRRRGELPCDDYGYAPPETEIVPLVLRGHLMDIECLASDGMLLVSCCLAGHVCVWDAQTGDCLTRIPRPGRQRRDSGVGSGLEAQESWERLSDGGKAGPEEPGDSPPLRHRPRGPPPPSLFGDQPDLTCLIDTNFSAQPRSSQPTQPEPRHRAVCGRSRDSPGYDFSCLVQRVYQEEGLAAVCTPALRPPSPGPVLSQAPEDEGGSPEKGSPSLAWAPSAEGSIWSLELQGNLIVVGRSSGRLEVWDAIEGVLCCSSEEVSSGITALVFLDKRIVAARLNGSLDFFSLETHTALSPLQFRGTPGRGSSPASPVYSSSDTVACHLTHTVPCAHQKPITALKAAAGRLVTGSQDHTLRVFRLEDSCCLFTLQGHSGAITTVYIDQTMVLASGGQDGAICLWDVLTGSRVSHVFAHRGDVTSLTCTTSCVISSGLDDLISIWDRSTGIKFYSIQQDLGCGASLGVISDNLLVTGGQGCVSFWDLNYGDLLQTVYLGKNSEAQPARQILVLDNAAIVCNFGSELSLVYVPSVLEKLD
–	no binding	WT Scap (pull-down assay) (protein, UniProt Q12770 1-1279) MTLTERLREKISRAFYNHGLLCASYPIPIILFTGFCILACCYPLLKLPLPGTGPVEFTTPVKDYSPPPVDSDRKQGEPTEQPEWYVGAPVAYVQQIFVKSSVFPWHKNLLAVDVFRSPLSRAFQLVEEIRNHVLRDSSGIRSLEELCLQVTDLLPGLRKLRNLLPEHGCLLLSPGNFWQNDWERFHADPDIIGTIHQHEPKTLQTSATLKDLLFGVPGKYSGVSLYTRKRMVSYTITLVFQHYHAKFLGSLRARLMLLHPSPNCSLRAESLVHVHFKEEIGVAELIPLVTTYIILFAYIYFSTRKIDMVKSKWGLALAAVVTVLSSLLMSVGLCTLFGLTPTLNGGEIFPYLVVVIGLENVLVLTKSVVSTPVDLEVKLRIAQGLSSESWSIMKNMATELGIILIGYFTLVPAIQEFCLFAVVGLVSDFFLQMLFFTTVLSIDIRRMELADLNKRLPPEACLPSAKPVGQPTRYERQLAVRPSTPHTITLQPSSFRNLRLPKRLRVVYFLARTRLAQRLIMAGTVVWIGILVYTDPAGLRNYLAAQVTEQSPLGEGALAPMPVPSGMLPPSHPDPAFSIFPPDAPKLPENQTSPGESPERGGPAEVVHDSPVPEVTWGPEDEELWRKLSFRHWPTLFSYYNITLAKRYISLLPVIPVTLRLNPREALEGRHPQDGRSAWPPPGPIPAGHWEAGPKGPGGVQAHGDVTLYKVAALGLATGIVLVLLLLCLYRVLCPRNYGQLGGGPGRRRRGELPCDDYGYAPPETEIVPLVLRGHLMDIECLASDGMLLVSCCLAGHVCVWDAQTGDCLTRIPRPGRQRRDSGVGSGLEAQESWERLSDGGKAGPEEPGDSPPLRHRPRGPPPPSLFGDQPDLTCLIDTNFSAQPRSSQPTQPEPRHRAVCGRSRDSPGYDFSCLVQRVYQEEGLAAVCTPALRPPSPGPVLSQAPEDEGGSPEKGSPSLAWAPSAEGSIWSLELQGNLIVVGRSSGRLEVWDAIEGVLCCSSEEVSSGITALVFLDKRIVAARLNGSLDFFSLETHTALSPLQFRGTPGRGSSPASPVYSSSDTVACHLTHTVPCAHQKPITALKAAAGRLVTGSQDHTLRVFRLEDSCCLFTLQGHSGAITTVYIDQTMVLASGGQDGAICLWDVLTGSRVSHVFAHRGDVTSLTCTTSCVISSGLDDLISIWDRSTGIKFYSIQQDLGCGASLGVISDNLLVTGGQGCVSFWDLNYGDLLQTVYLGKNSEAQPARQILVLDNAAIVCNFGSELSLVYVPSVLEKLD
